103 sequences from PubChem BioAssay AID1347423 (Functional Genomics Laboratory (NCATS/FGL), 2020) can be followed below.

The campaign covered roughly 52,000 sequences. About 210 (0.4%) were called active.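 Rule for the calls: active = gene whose silencing raises cell survival under the drug, median off-target-corrected z-score across its silencing RNAs 2 or more; inactive = the rest.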 The list shows a part of the results.

The assay can be described thus: Resistance to Poly (ADP-Ribose) Polymerase inhibitor: Gene Identification via Genome-wide siRNA Screen. To be noted: mouse BRCA2 R2336H ES cells, olaparib, CellTiter-Glo viability; stronger effect = higher value. Summed up: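 Genome-wide siRNA screen (3 siRNAs/gene, 20 nM) in mouse ES cells carrying hypomorphic BRCA2 R2336H; olaparib 500 nM added 48 h post-transfection, CellTiter-Glo viability 72 h later. Normalized to plate-median negative control; MAD z-scores, gene median, seed-adjusted.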
For the sequence GGACCAGUUCUGGUUCAGATT against Fmn2, the z-score was inactive: 0.168.

Take GAGAAACUAUGGCUGAAAATT against Klk6: the z-score was inactive: 0.52.

For GGAUAAAUUUCAAGAUGUGTT against Birc1e, the z-score is inactive: -1.61. With “CCACUCUAAUGAUGUUUUUTT against 1200006F02Rik”, the z-score is inactive: 0.281.

Consider GCGGAGAGAUCAAAGCGAUTT against Iltifb, for which the z-score is inactive: -0.616. With GGCUUUGAUAUACCUUGAATT against Pvt1, the z-score is inactive: -0.986.

As for “GGCUUAUGUAUGUAAACACTT against 2810426N06Rik”, the z-score was inactive: 1.24. Turning to GGACAAGAAGAAAGAAAAGTT against Tegt, the z-score was inactive: -0.517. In the case of CCGAGUUUGCCUUCUAUCCTT against Hoxb13, the z-score is inactive: 0.587.

On to CGACCACACCCAAAACACUTT against Ddx26, for which the z-score is inactive: 1.15. For the sequence CCAAACUAUAGUGAACUUATT against Irak4, the z-score is inactive: 0.608. With GGAGGAAGUGUUUUUCUCCTT against LOC545925 the figure was inactive: -0.0218; with GCCAUCACUGAAUUAAGAUTT against Pcdhb11, inactive: -0.427; with GGACAAACAGCUUCAAGAUTT against Psmd2, inactive: -2.75. With CCACAUCUCAUGUGAAACCTT against Olfr517 the figure was inactive: 0.922. For the sequence GGACCAUACUGGAUAAGGATT against Ccl12, the z-score was inactive: -1.4. For the sequence “GGAACAAACUUGAACUCUCTT against 2610019N13Rik”, the z-score was inactive: -2.06.

On to GGUGAACAGAAUAUAUGGATT against Olfr629, for which the z-score is inactive: 1.06.

CCUUCACACUUAAUAGAGGTT against Ifitm3: the z-score is inactive: -0.5. For the sequence GGUGAACAGAGCUCAUAAUTT against Specc1, the z-score is inactive: 0.344. The figure for GGAAGAAACCUCUUCGAGATT against Hmg20a is inactive: 0.655; for “GGAAAAAUUGACCAAAGGATT against 1200011I18Rik” it is inactive: -2.01. As for GGGUCUACAAUCACCAGACTT against Wnt10a, the z-score was inactive: 2.06. As for GGAAACAAGAUUACAUCAATT against Adamts2, the z-score is inactive: 0.527.

For the sequence CCUCGUAUUUAUACUCAGUTT against Gpr18, the z-score was inactive: 0.757. In the case of CAUUGAAUUCCUGCUCUCCTT against Defcr-rs2, the z-score is inactive: -0.164. Take GCCCGCACAAUCGUACUUUTT against Ccl28: the z-score was inactive: 0.889. Take GGACAAUGAAGGAAUUGAUTT against Mdm4: the z-score is inactive: 0.424. With GGAAUGUUGUUCUCAAGAUTT against Ddhd1 the figure was inactive: 1.49; with GGUACUAAACUUCUUCAACTT against Rsu1, inactive: -0.018; with GGCUUUUUCCUCUAUCUGATT against Thoc1, inactive: -2.97. “GGUCCAGUCAGGAAACACATT against 4933425F06Rik”: the z-score is inactive: -0.692. The figure for GGGUUAUCCAAGUCUUUUCTT against Olfr617 is inactive: 0.87; for GGAUGGCUCCAUUGUCAUATT against Mpz it is inactive: -0.714; for GGAACUUAAUCACCCUAAUTT against Cdk2 it is inactive: -1.15. Take “GCCUGUUUAGAAUUAGAGATT against 9930023K05Rik”: the z-score was inactive: 0.647. With GCUGAAGGAGAAAUUCACCTT against Ptgds the figure was inactive: 1.44. With GGCAUGAUUAUUGUGUUUGTT against Abcb11, the z-score was inactive: 0.00178.

As for GCCGUUAACCUCAAGUUUUTT against Lrrn3, the z-score was inactive: -0.0628. CCUCCCUAUUCUAUGGUAGTT against Prss34: the z-score was inactive: -0.23. The figure for “GGCAUUUGUAAUUCCAGUUTT against 4732415M23Rik” is inactive: -1.29; for “CCUAACCUGAAAGUUCCAGTT against 2810423G08Rik” it is inactive: 0.633; for GCAUGUGUUACAUAGAAAUTT against Deb1 it is inactive: -1.68.

Turning to CGAAAAUCAAGCGGAAUUUTT against BC065120, the z-score is inactive: -0.715. On to “GCAAGAACUUCGCUGCUCUTT against 1500032L24Rik”, for which the z-score is inactive: 0.915. With CCUGUUUCUGACCUAAUACTT against Syn1, the z-score was inactive: -1. For GGGUAGGUUGUGUUUGCAUTT against Dmn, the z-score is inactive: 1.46.

CCAACGGAUGCUCAAACAATT against Aspscr1: the z-score was inactive: 1.89. Regarding GGAGAAGAAGUCCAAAGGATT against Tnfaip2, the z-score was inactive: -1.05. For GGCCAUCAGAUAAAAGUUGTT against Rutbc2, the z-score was inactive: 0.378. As to “GGCACAAAGGCAGUUAUUCTT against 1110049G11Rik”, the z-score is inactive: 0.847. Take “GGUAUUGAAUACAGGAAUUTT against C330049O21Rik”: the z-score is inactive: -1.15.

Regarding CCGUUAGGUUUUUAUCCAATT against Ube2b, the z-score was inactive: 0.368. In the case of GCCGAGCCAUAUGACACUATT against Tlk2, the z-score was inactive: 2.5. Regarding “GGAACGUGAAUCUACAGCATT against 1700065I17Rik”, the z-score was inactive: -0.494.

With “CCCAACUUUGGGCUUGUCUTT against 2610111M03Rik”, the z-score is inactive: -2.37. Consider “GGCCAACAAGAUUCUAGAGTT against 1110028E10Rik”, for which the z-score was inactive: -1.83. As to GCUCCAUUGGGUGUGAACATT against Apg4d, the z-score is inactive: -2.56. With GGCCAUGAUUUACGACGACTT against C1qtnf4 the figure was inactive: 1.38; with “CCGUGAAAGUACAUUGUAUTT against E330009J07Rik”, inactive: -0.393; with GCCCUUGGAAACACCAAUATT against Mustn1, inactive: 1.38.

As for “GGAACAAGUGUCUGACAGUTT against 0610039A15Rik”, the z-score is inactive: -0.636.

With “GGAGCUUCAGGUGAAGCGATT against 2010309E21Rik”, the z-score is inactive: 0.0859. As to GGCCUCUACUUCUUUGAAUTT against Cklfsf6, the z-score was inactive: -0.343. For CCGAGGAUGGCCACAUAUGTT against Tmprss8, the z-score is inactive: -1.43. Turning to CCUAGUGAGCACUGUACUUTT against Olfr988, the z-score was inactive: 0.118.

As to GCCCAUUCAUAUGUAUAUCTT against Clpp, the z-score was inactive: -0.332. Take GCAGUUAUAUGCUCAAGAUTT against Pik3r3: the z-score was inactive: 1.38. With GGCUUCAAUCCUGACGAGATT against 6.33E+19 the figure was inactive: 0.196.

For the sequence GGUGGACUUUAGUCCUGUGTT against Bpil3, the z-score was inactive: -1.62. The figure for GGACAUGAGUUACAUGACATT against Galnt5 is inactive: 1.41; for GCAUGAGAGCCUAUGCAGCTT against Man2b2 it is inactive: 1.54; for GCUGGUACAGCGUAUACCATT against AW555464 it is inactive: 0.645. For the sequence AAGCUUCAACAUCAGUUUGTT against Olfr1392, the z-score was inactive: 0.106. For the sequence CGGCCUGUAAGAACAAACATT against Cdc37l1, the z-score is inactive: 1.89.

On to GGUUGUGCUGAAGAAUUCUTT against Cspg4, for which the z-score is inactive: -2.32. In the case of GGAGACAGAAUCAUAGUUATT against Sh3yl1, the z-score is inactive: -1.21. The figure for GGAAAAUAUGUGUAGGGAATT against Nkx2-2 is inactive: 0.407; for “GGAAAAGGAAUUCUCCAGATT against 6620401K05Rik” it is inactive: -1.08; for GGAAAUCAACAGCUCACAUTT against C76566 it is inactive: -0.926. Regarding CCUGUUUAAACUCUGCGGATT against Vit, the z-score was inactive: 0.563.

As to GGAGAAAGGAGACCUAAAGTT against Mmab, the z-score was inactive: -1.27. As to “GCAGCUUGACCAAGUCCAUTT against D11Ertd498e”, the z-score was inactive: 0.992. With GGACAAUUGAGGAACUUCUTT against Tkt the figure was inactive: 1.81; with CGAUAAAAGACCCAAAUUATT against Emx2, inactive: 0.942.

Regarding “GCUGGGAUAUUACAUUCUATT against 9030625G08Rik”, the z-score is inactive: -1.3.

As for “GGUGGACUCAAAAUUAGAATT against 1810054D07Rik”, the z-score was inactive: 0.765. For the sequence CCAACUCGAAGCAAUAUGCTT against Morf4l2, the z-score is inactive: 0.711. As to GGUUUCCAUCUGAAUAAAATT against Tmem8, the z-score is inactive: -0.497. Take GCACUGUUGUACUUGACUGTT against Fancg: the z-score is inactive: 0.201. As for “CCACCACCAUCUAAAUAUATT against 2610318C08Rik”, the z-score is inactive: 0.95. For the sequence “GGCCAUCCAAGCAUGAGUUTT against 1110032A13Rik”, the z-score was inactive: -0.734. Consider GGCUCAUCUACCACGAGGUTT against Sprrl10, for which the z-score is inactive: -0.239. GGCUUCAAACAUCCGUUCGTT against Foxb2: the z-score is inactive: -0.0682.

“GGGCUUACUGCUUAAUAGATT against 4833415N24Rik”: the z-score was inactive: -0.00576. For GGAUGAAGACUAAUACUAATT against Ltbp2, the z-score was inactive: 0.0321. For GGAGAACCUUGUGGACAAGTT against Xpnpep1, the z-score is inactive: -0.55. Take GGCGAAUUGUAUUUGAAAGTT against Lactb: the z-score is inactive: 0.645. On to CGAGAAAGUAUUGACCGAGTT against Anxa5, for which the z-score was inactive: -0.935. Turning to “GCAGAAUGCUCACGUGGAUTT against C530030I18Rik”, the z-score is inactive: 0.117.

As for GCCUCUGAGUUGCAUGAGUTT against Ppp2r5b, the z-score was active: 2.37. For the sequence GGACAGCAGCGUGAACUAUTT against Cart1, the z-score is inactive: -0.559. As to “GGAUCUGGAGGACGAUUCATT against 1700020L24Rik”, the z-score was inactive: 0.338.
